Measurements taken from PMC3526283.

Key:
[1] = target: DNA polymerase beta (Polβ) (Homo sapiens) (UniProt P06746); test: EMSA; settings: 100 nM protein; EMSA: 50 mM Tris-HCl pH 7.5, 0.1 mg/ml BSA, 1 mM DTT, 4% glycerol, 5 nM DNA, 10 min at 30°C; recombinant protein; label: 32P at 5' end of Sp1C
[2] = target: DNA polymerase beta (Polβ) (Homo sapiens) (UniProt P06746); test: DNase I footprinting; settings: 100 µM dTTP, 2.5 mM MgCl2, hardly visible; footprinting: same buffer, 30 nM DNA, 37°C (2.5 mM MgCl2 and 100 µM dNTP where stated); recombinant protein; label: 32P at 5' end of FP-T
[3] = target: DNA polymerase mu (Polµ) (Homo sapiens) (UniProt Q9NP87); test: DNase I footprinting; settings: 100 µM dTTP, 2.5 mM MgCl2, hardly visible; footprinting: same buffer, 30 nM DNA, 37°C (2.5 mM MgCl2 and 100 µM dNTP where stated); recombinant protein; label: 32P at 5' end of FP-T

Row | Sequence | binding result [1] | binding result [2] | binding result [3]
1 | AGAAGTGTATCTCGTACTCACTGTGATC / GATCACAGTGAGTAC / AGATACACTTCT [1-nt gap Sp1C/T28/D12, 5'-OH] | binds more weakly | – | –
2 | GGCAGCTTGGATCTTGTCGAAAAACGTCAACATTCGCCTAGGCTTCGGCAATACTGAGGTCTTGTCGAAAAACGTCAACATTGCGTGGCC / GGCCACGCAATGTTGACGTTTTTCGACAAGACCTCAGTAT / GCCGAAGCCTAGGCGAATGTTGACGTTTTTCGACAAGATCCAAGCTGCC [footprint 1-nt gap FP-T/FP-P/FP-D, 5'-OH] | – | binds more weakly | binds more weakly

The exact form of at least one protein or probe is not confirmed. A weaker result is weaker than the reference pair of the same experiment.
